PubChem BioAssay AID1224828 – NIAID, 2016
The whole screen tested about 17,000 reagents; below is a random part of them. 762 of them (4.5%) count as active. 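Active calls include both raised and lowered p65 entry, mostly lowered; wells with fewer than 50 cells lack a z-score.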 Raw values are not corrected between plates.

Test: 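Knock-downs that increase or decrease LPS-induced p65 nuclear translocation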 (primary screen)
Cells: mouse RAW264.7 G9 macrophage reporter cells (GFP-p65, Tnf promoter-mCherry)
Reagents: siRNA pool against mouse genes, 100 nM
Timing: 2 days siRNA transfection, then 40 min LPS before fixation
Challenge: LPS (Salmonella minnesota R595) at 10 ng/ml
Measured: 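Microscopy ratio of nuclear to perinuclear-ring GFP-p65 signal, scaled to the plate median; gene score is the average of two replicate robust z-scores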
Direction: p65 translocation robust z-score: higher = more nuclear NF-kappaB p65 after LPS than the plate median; nuclear/cytoplasmic p65 ratio: higher = more nuclear NF-kappaB p65
Hit rule: 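Called active when z exceeds 3.3 or falls under -1.56 (median of Tlr4 controls), giving activity score of at least 50; no calls for control wells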
Meaning of the calls: active = hit (p65 shift raised or lowered); inactive = no clear change

For Cmtm6 (CKLF-like MARVEL transmembrane domain containing 6), the entry reads p65 translocation robust z-score 0.82; nuclear/cytoplasmic p65 ratio, rep 1 = 1.62; nuclear/cytoplasmic p65 ratio, rep 2 = 2.02; low cell count flag enough cells to score; inactive.
With knock-down of Hba-x (hemoglobin X, alpha-like embryonic chain in Hba complex) the results were p65 translocation robust z-score -0.6; nuclear/cytoplasmic p65 ratio, rep 1 = 1.37; nuclear/cytoplasmic p65 ratio, rep 2 = 1.28; low cell count flag enough cells to score; inactive.
Depletion of Pcbd1 gave: p65 translocation robust z-score 0.71; nuclear/cytoplasmic p65 ratio, rep 1 = 1.56; nuclear/cytoplasmic p65 ratio, rep 2 = 1.4; low cell count flag enough cells to score; inactive.
Depletion of Ezh1 (enhancer of zeste 1 polycomb repressive complex 2 subunit) gave: p65 translocation robust z-score -0.51; nuclear/cytoplasmic p65 ratio, rep 1 = 1.17; nuclear/cytoplasmic p65 ratio, rep 2 = 1.29; low cell count flag enough cells to score; inactive.
With knock-down of Samd12 (sterile alpha motif domain containing 12) the results were nuclear/cytoplasmic p65 ratio, rep 1 = 1.37; nuclear/cytoplasmic p65 ratio, rep 2 = 1.63; low cell count flag fewer than 50 cells per well; well left out of scoring; inactive.
After knock-down of Tuba1c (tubulin, alpha 1C), the screen gave nuclear/cytoplasmic p65 ratio, rep 1 = 1.92; nuclear/cytoplasmic p65 ratio, rep 2 = 1.34; low cell count flag fewer than 50 cells per well; well left out of scoring; inactive.
Depletion of Adcy6 (adenylate cyclase 6) came out at: p65 translocation robust z-score -0.41; nuclear/cytoplasmic p65 ratio, rep 1 = 1.45; nuclear/cytoplasmic p65 ratio, rep 2 = 1.64; low cell count flag enough cells to score; inactive.
Knock-down of Rictor (RPTOR independent companion of MTOR, complex 2) resulted in: nuclear/cytoplasmic p65 ratio, rep 1 = 1.21; nuclear/cytoplasmic p65 ratio, rep 2 = 1.09; low cell count flag fewer than 50 cells per well; well left out of scoring; inactive.
Gm10101 (predicted gene 10101) showed nuclear/cytoplasmic p65 ratio, rep 1 = 1.29; nuclear/cytoplasmic p65 ratio, rep 2 = 1.75; low cell count flag fewer than 50 cells per well; well left out of scoring; inactive.
For Tnfrsf8 (tumor necrosis factor receptor superfamily, member 8), the entry reads p65 translocation robust z-score -1.26; nuclear/cytoplasmic p65 ratio, rep 1 = 1.33; nuclear/cytoplasmic p65 ratio, rep 2 = 1.3; low cell count flag enough cells to score; inactive.
For Ca3 (carbonic anhydrase 3) the deposit lists p65 translocation robust z-score 0.05; nuclear/cytoplasmic p65 ratio, rep 1 = 1.53; nuclear/cytoplasmic p65 ratio, rep 2 = 1.87; low cell count flag enough cells to score; inactive.
For Slc6a18 the deposit lists p65 translocation robust z-score 0.04; nuclear/cytoplasmic p65 ratio, rep 1 = 1.37; nuclear/cytoplasmic p65 ratio, rep 2 = 1.26; low cell count flag enough cells to score; inactive.
Knock-down of Coq5 (coenzyme Q5 methyltransferase) resulted in: p65 translocation robust z-score 0.97; nuclear/cytoplasmic p65 ratio, rep 1 = 1.58; nuclear/cytoplasmic p65 ratio, rep 2 = 1.82; low cell count flag enough cells to score; inactive.
For Nsun2 (NOL1/NOP2/Sun domain family member 2) the deposit lists p65 translocation robust z-score -1.53; nuclear/cytoplasmic p65 ratio, rep 1 = 1.33; nuclear/cytoplasmic p65 ratio, rep 2 = 1.55; low cell count flag enough cells to score; inactive.
Ano9 (anoctamin 9) gave p65 translocation robust z-score -1.72; nuclear/cytoplasmic p65 ratio, rep 1 = 1.19; nuclear/cytoplasmic p65 ratio, rep 2 = 1.18; low cell count flag enough cells to score; active.

Laid out differently: entries from further up
| gene symbol | p65 translocation robust z-score | nuclear/cytoplasmic p65 ratio, rep 1 | nuclear/cytoplasmic p65 ratio, rep 2 | low cell count flag | outcome |
| --- | --- | --- | --- | --- | --- |
| Ezh1 (enhancer of zeste 1 polycomb repressive complex 2 subunit) | -0.51 | 1.17 | 1.29 | enough cells to score | inactive |
| Samd12 (sterile alpha motif domain containing 12) | – | 1.37 | 1.63 | fewer than 50 cells per well; well left out of scoring | inactive |
| Tuba1c (tubulin, alpha 1C) | – | 1.92 | 1.34 | fewer than 50 cells per well; well left out of scoring | inactive |

The results go on:
After knock-down of Pcmtd1, the screen gave p65 translocation robust z-score 1; nuclear/cytoplasmic p65 ratio, rep 1 = 1.48; nuclear/cytoplasmic p65 ratio, rep 2 = 1.7; low cell count flag enough cells to score; inactive.
Rhof (ras homolog family member F (in filopodia)) gave p65 translocation robust z-score -0.89; nuclear/cytoplasmic p65 ratio, rep 1 = 1.47; nuclear/cytoplasmic p65 ratio, rep 2 = 1.31; low cell count flag enough cells to score; inactive.
Magea6 (MAGE family member A6) showed p65 translocation robust z-score 0.14; nuclear/cytoplasmic p65 ratio, rep 1 = 1.68; nuclear/cytoplasmic p65 ratio, rep 2 = 1.62; low cell count flag enough cells to score; inactive.
With knock-down of Gla (galactosidase, alpha) the results were p65 translocation robust z-score -0.96; nuclear/cytoplasmic p65 ratio, rep 1 = 1.41; nuclear/cytoplasmic p65 ratio, rep 2 = 1.15; low cell count flag enough cells to score; inactive.
After knock-down of Metap2 (methionine aminopeptidase 2), the record shows p65 translocation robust z-score -0.9; nuclear/cytoplasmic p65 ratio, rep 1 = 1.57; nuclear/cytoplasmic p65 ratio, rep 2 = 1.42; low cell count flag enough cells to score; inactive.
After knock-down of A730045E13Rik (RIKEN cDNA A730045E13 gene) the results were p65 translocation robust z-score -0.38; nuclear/cytoplasmic p65 ratio, rep 1 = 1.35; nuclear/cytoplasmic p65 ratio, rep 2 = 1.47; low cell count flag enough cells to score; inactive.
After knock-down of Kat6b (K(lysine) acetyltransferase 6B), the screen gave p65 translocation robust z-score -0.3; nuclear/cytoplasmic p65 ratio, rep 1 = 1.71; nuclear/cytoplasmic p65 ratio, rep 2 = 1.57; low cell count flag enough cells to score; inactive.
Silencing of Or6z5 (olfactory receptor family 6 subfamily Z member 5) came out at: nuclear/cytoplasmic p65 ratio, rep 1 = 1.41; nuclear/cytoplasmic p65 ratio, rep 2 = 1.37; low cell count flag fewer than 50 cells per well; well left out of scoring; inactive.
After knock-down of Tmem70 (transmembrane protein 70), the screen gave p65 translocation robust z-score 0.53; nuclear/cytoplasmic p65 ratio, rep 1 = 1.66; nuclear/cytoplasmic p65 ratio, rep 2 = 1.48; low cell count flag enough cells to score; inactive.
Knock-down of Pik3cd resulted in: p65 translocation robust z-score 0.26; nuclear/cytoplasmic p65 ratio, rep 1 = 1.53; nuclear/cytoplasmic p65 ratio, rep 2 = 1.45; low cell count flag enough cells to score; inactive.
Silencing of Tmem37 (transmembrane protein 37) gave: p65 translocation robust z-score -0.18; nuclear/cytoplasmic p65 ratio, rep 1 = 1.32; nuclear/cytoplasmic p65 ratio, rep 2 = 1.23; low cell count flag enough cells to score; inactive.
Or8b12b (olfactory receptor family 8 subfamily B member 12B) showed p65 translocation robust z-score -0.78; nuclear/cytoplasmic p65 ratio, rep 1 = 1.4; nuclear/cytoplasmic p65 ratio, rep 2 = 1.12; low cell count flag enough cells to score; inactive.
